From the supplement of paper PMC12067093, “Discovery and optimisation of a covalent ligand for TRIM25 and its application to targeted protein ubiquitination” (Chemical Science, 2025)
This is one part of the list.

Amino acid sequences for entries named in this document (tags omitted). A change or cut given only in a name is not applied to a line headed by its entry.
UniProt Q8NFW8: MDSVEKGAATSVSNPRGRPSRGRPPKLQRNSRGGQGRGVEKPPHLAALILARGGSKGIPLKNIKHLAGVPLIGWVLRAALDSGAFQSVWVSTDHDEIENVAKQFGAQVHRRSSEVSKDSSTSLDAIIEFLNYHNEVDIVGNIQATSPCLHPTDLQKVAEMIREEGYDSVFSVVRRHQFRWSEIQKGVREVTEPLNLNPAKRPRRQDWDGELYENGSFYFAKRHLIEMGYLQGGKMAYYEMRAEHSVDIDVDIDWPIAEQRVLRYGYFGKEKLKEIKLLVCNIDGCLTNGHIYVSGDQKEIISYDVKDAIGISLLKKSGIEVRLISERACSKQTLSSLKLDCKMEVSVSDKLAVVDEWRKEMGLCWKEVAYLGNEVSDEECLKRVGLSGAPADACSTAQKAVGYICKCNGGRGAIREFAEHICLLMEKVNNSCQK
UniProt Q9Y678: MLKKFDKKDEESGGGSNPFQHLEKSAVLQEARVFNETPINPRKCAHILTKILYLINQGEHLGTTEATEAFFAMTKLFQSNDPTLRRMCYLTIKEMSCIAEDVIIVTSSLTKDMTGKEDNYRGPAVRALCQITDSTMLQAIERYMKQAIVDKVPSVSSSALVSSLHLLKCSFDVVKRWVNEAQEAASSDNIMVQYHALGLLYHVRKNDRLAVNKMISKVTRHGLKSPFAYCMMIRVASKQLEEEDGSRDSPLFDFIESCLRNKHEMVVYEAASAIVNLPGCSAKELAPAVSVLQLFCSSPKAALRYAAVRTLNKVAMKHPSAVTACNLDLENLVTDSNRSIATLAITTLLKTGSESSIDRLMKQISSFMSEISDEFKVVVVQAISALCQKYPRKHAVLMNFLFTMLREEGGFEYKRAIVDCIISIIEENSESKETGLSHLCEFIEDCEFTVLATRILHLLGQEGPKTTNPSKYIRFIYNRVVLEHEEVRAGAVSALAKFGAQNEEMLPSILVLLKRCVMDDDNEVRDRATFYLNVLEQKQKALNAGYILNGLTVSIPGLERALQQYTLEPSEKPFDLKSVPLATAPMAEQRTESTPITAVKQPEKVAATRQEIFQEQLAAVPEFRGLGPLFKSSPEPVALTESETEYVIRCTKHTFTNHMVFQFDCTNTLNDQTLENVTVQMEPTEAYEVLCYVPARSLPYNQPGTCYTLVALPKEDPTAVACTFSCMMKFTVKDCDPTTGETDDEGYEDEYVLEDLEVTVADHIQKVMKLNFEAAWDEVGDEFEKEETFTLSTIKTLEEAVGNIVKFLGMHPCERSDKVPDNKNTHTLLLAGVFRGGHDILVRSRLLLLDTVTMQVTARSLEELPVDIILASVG
UniProt Q9UBF2: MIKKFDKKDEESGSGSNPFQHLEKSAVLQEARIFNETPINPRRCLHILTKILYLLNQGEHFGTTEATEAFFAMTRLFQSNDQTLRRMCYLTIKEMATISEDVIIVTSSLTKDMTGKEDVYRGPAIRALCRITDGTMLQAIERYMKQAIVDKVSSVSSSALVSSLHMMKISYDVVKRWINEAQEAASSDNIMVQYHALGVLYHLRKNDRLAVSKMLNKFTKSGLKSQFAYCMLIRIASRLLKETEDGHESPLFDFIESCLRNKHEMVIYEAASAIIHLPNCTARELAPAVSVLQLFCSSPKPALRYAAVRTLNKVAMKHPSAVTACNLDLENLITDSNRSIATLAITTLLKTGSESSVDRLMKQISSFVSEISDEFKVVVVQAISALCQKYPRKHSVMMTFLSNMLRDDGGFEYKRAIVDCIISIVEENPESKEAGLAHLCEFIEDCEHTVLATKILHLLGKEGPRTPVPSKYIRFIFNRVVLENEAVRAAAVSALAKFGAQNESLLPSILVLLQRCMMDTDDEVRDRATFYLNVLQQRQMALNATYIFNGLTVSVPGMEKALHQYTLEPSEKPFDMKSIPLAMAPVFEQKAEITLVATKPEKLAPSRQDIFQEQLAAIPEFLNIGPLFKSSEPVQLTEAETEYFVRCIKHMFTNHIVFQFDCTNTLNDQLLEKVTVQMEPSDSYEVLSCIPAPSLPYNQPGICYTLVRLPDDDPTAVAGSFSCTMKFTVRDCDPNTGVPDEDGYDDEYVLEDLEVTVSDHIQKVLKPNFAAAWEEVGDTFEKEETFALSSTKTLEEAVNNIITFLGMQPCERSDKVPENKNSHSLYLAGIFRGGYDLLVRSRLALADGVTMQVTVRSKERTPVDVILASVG
UniProt Q9H9A5, whole entry, looked up: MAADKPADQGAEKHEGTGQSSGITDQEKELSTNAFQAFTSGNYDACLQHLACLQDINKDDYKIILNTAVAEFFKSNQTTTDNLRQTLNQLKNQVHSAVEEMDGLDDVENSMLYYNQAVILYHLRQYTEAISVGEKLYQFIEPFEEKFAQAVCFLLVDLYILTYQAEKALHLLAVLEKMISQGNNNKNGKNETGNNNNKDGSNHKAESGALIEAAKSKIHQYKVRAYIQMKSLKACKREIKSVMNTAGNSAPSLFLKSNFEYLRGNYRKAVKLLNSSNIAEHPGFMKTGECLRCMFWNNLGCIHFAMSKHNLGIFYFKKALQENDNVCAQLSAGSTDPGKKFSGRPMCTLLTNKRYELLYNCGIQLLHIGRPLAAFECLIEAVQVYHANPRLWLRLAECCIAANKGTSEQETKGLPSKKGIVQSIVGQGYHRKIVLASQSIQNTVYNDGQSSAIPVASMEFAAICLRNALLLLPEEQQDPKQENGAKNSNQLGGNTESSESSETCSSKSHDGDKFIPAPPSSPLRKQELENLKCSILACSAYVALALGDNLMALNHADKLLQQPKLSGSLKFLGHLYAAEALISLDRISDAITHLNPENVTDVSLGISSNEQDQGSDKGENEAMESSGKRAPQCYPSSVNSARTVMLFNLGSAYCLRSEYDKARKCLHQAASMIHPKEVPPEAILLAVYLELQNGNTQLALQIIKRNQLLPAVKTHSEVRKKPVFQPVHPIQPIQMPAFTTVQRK
UniProt P53618: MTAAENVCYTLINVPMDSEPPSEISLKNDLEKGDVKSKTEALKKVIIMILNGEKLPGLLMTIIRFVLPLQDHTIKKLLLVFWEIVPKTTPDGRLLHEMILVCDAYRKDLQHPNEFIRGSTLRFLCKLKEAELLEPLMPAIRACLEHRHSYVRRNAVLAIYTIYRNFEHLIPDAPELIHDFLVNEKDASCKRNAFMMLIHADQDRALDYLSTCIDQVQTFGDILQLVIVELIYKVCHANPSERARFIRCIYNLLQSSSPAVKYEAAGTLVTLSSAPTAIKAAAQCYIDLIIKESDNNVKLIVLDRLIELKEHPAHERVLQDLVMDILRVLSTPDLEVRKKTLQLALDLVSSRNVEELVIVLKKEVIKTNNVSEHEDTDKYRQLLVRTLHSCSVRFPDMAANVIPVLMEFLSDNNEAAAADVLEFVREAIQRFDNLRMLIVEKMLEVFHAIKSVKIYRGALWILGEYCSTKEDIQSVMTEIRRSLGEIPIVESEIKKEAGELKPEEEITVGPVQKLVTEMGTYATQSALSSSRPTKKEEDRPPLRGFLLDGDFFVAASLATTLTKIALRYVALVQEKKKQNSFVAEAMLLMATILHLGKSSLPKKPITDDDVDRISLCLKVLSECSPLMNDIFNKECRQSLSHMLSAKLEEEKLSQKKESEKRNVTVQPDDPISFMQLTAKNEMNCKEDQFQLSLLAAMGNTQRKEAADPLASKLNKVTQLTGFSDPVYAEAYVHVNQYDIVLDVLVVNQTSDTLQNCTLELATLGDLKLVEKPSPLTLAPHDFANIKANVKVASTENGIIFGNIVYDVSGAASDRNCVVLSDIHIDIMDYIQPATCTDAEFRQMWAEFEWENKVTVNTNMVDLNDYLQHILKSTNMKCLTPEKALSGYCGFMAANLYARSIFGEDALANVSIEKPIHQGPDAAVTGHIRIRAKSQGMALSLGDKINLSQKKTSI
UniProt Q14746: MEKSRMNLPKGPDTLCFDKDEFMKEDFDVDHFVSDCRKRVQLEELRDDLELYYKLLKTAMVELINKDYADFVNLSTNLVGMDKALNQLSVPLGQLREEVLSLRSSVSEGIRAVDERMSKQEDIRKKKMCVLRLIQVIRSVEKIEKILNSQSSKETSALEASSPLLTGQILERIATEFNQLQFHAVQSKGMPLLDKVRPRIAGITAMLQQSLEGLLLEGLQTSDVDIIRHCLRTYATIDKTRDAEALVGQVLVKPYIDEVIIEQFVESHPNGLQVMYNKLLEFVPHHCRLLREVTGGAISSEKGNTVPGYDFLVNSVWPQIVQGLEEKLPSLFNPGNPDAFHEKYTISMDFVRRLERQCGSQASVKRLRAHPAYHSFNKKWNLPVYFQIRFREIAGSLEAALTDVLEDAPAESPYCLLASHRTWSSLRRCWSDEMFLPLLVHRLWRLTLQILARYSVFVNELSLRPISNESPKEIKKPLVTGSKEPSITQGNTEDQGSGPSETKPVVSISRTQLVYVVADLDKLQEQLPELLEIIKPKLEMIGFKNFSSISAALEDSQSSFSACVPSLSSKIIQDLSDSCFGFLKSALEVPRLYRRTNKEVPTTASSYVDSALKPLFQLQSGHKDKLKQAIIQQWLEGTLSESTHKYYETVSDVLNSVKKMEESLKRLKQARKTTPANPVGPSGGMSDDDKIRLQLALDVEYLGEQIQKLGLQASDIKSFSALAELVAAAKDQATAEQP
UniProt P53621: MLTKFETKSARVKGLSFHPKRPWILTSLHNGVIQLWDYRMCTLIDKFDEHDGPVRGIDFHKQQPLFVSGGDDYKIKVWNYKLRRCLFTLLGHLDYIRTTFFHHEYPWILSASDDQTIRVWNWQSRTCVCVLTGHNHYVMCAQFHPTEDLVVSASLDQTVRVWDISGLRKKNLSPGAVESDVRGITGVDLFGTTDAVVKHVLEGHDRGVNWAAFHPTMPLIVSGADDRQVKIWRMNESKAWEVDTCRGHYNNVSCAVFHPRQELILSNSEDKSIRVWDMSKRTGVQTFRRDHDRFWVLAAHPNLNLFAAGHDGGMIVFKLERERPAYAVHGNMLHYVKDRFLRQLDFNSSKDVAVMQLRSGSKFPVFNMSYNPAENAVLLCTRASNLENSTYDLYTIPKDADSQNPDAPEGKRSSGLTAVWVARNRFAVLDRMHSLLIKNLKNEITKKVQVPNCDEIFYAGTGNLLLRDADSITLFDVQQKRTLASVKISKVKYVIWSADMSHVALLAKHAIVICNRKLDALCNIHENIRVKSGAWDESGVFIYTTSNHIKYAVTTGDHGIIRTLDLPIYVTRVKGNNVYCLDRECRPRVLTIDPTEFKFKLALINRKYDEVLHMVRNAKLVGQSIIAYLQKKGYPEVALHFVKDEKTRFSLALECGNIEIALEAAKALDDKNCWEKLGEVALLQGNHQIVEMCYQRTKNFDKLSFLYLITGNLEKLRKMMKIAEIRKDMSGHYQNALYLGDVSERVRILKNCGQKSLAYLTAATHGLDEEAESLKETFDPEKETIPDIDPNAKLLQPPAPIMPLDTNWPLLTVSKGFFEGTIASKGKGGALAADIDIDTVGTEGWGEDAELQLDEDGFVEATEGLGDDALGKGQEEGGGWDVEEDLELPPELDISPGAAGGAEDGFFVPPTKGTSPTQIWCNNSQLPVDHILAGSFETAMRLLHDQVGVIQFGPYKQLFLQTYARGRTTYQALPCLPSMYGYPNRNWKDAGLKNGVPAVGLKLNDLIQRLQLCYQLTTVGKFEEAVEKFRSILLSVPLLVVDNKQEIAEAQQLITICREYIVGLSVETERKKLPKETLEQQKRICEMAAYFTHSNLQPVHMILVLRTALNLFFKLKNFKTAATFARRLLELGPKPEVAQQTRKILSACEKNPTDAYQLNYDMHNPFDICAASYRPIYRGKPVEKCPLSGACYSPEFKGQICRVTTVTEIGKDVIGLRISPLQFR
UniProt Q96BR5: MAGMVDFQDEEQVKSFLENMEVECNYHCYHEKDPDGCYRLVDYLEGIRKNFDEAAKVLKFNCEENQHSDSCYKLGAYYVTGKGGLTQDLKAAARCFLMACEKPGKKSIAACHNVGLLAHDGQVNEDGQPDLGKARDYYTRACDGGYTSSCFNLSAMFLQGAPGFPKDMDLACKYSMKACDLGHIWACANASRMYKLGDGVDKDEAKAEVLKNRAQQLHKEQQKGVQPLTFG
UniProt Q96KP4: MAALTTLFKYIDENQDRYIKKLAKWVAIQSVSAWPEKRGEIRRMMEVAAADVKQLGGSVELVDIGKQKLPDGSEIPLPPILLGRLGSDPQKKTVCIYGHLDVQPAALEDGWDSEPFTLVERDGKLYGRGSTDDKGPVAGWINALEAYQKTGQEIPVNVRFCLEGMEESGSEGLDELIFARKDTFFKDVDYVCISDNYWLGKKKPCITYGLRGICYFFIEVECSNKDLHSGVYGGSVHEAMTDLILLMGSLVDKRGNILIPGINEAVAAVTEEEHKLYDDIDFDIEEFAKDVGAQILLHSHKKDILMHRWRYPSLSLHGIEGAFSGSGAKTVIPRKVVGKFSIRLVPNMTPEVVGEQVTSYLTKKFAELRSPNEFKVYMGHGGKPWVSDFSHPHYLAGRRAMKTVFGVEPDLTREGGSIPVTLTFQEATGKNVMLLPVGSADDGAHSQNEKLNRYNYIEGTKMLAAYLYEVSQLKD

Compound: CC1Cc2ccccc2N1C(=O)C1CCCN(C1)C(=O)CCl (mixture of isomers) [TRIM25 ligand 11 (diastereomer mixture)]
Assay: probe-labelled cysteine peptide fold change vs DMSO (competition) (log2 fold change); higher = less target engagement (more negative = stronger competition)
Settings: THP-1, incubation time: 4 h
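Further: competitive chemoproteomic profiling in live THP-1 cells with an iodoacetamide desthiobiotin (IA-DTB) probe, comparing probe-labelled peptide intensities in compound-treated cells against DMSO-treated controls.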

CMAS_Q8NFW8_380_EVAYLGNEVSDEECLKR (UniProt Q8NFW8)
probe-labelled cysteine peptide fold change (10 µM): -0.0408
probe-labelled cysteine peptide fold change (50 µM): -0.052

COG5_Q9UP83_366_KRDPVSHICFIEEIVK (UniProt Q9UP83)
probe-labelled cysteine peptide fold change (10 µM): 0.187
probe-labelled cysteine peptide fold change (50 µM): 0.00813

COPG1_Q9Y678_169_CSFDVVK (UniProt Q9Y678)
probe-labelled cysteine peptide fold change (10 µM): 0.0159
probe-labelled cysteine peptide fold change (50 µM): 0.117

COMT_P21964_238+241_GSSCFECTHYQSFLEYR (UniProt P21964)
probe-labelled cysteine peptide fold change (10 µM): -0.0151
probe-labelled cysteine peptide fold change (50 µM): -0.264

COPG1_Q9Y678_440+446_ETGLSHLCEFIEDCEFTVLATR (UniProt Q9Y678)
probe-labelled cysteine peptide fold change (10 µM): 0.0958
probe-labelled cysteine peptide fold change (50 µM): 0.133

COPG2_Q9UBF2_296_ELAPAVSVLQLFCSSPK (UniProt Q9UBF2)
probe-labelled cysteine peptide fold change (10 µM): 0.035
probe-labelled cysteine peptide fold change (50 µM): 0.0896

COPG1_Q9Y678_169_CSFDVVKR (UniProt Q9Y678)
probe-labelled cysteine peptide fold change (10 µM): -0.129
probe-labelled cysteine peptide fold change (50 µM): 0.0248

COMP_P49747_348_WGDACDNCR (UniProt P49747)
probe-labelled cysteine peptide fold change (10 µM): 0.349
probe-labelled cysteine peptide fold change (50 µM): 0.344

CNOT10_Q9H9A5_327_ALQENDNVCAQLSAGSTDPGK (UniProt Q9H9A5)
probe-labelled cysteine peptide fold change (10 µM): 0.384
probe-labelled cysteine peptide fold change (50 µM): 0.392

COPB1_P53618_8_TAAENVCYTLINVPMDSEPPSEISLK (UniProt P53618)
probe-labelled cysteine peptide fold change (10 µM): 0.0848
probe-labelled cysteine peptide fold change (50 µM): -0.372

COG2_Q14746_358_QCGSQASVK (UniProt Q14746)
probe-labelled cysteine peptide fold change (10 µM): -0.0174
probe-labelled cysteine peptide fold change (50 µM): 0.0387

COPA_P53621_585_GNNVYCLDRECRPR (UniProt P53621)
probe-labelled cysteine peptide fold change (10 µM): -0.183
probe-labelled cysteine peptide fold change (50 µM): -0.0663

COA7_Q96BR5_100_CFLMACEK (UniProt Q96BR5)
probe-labelled cysteine peptide fold change (10 µM): -0.056
probe-labelled cysteine peptide fold change (50 µM): 0.083

CNDP2_Q96KP4_222_GICYFFIEVECSNK (UniProt Q96KP4)
probe-labelled cysteine peptide fold change (10 µM): 0.368
probe-labelled cysteine peptide fold change (50 µM): 0.367
